# PubChem BioAssay AID504834 (National Center for Advancing Translational Sciences (NCATS), 2011)
# In all, about 320,000 compounds went through this assay and about 22,000 (6.9%) were called active. Inconclusive means that the source gave no clear call. Such entries were picked first, then a sample of the others. The call rests on the fitted dose curve; in most records, active means well fitted inhibition curve with a large enough effect; inconclusive means small, poorly fitted or top-dose-only effect, or another doubt; inactive means no such curve, though single readings can be large or run the other way. Potencies of inconclusive entries are doubtful fits and often do not repeat.
# Assay: Primary qHTS for delayed death inhibitors of the malarial parasite plastid, 96 hour incubation
# Details: P. falciparum luciferase reporter growth; series mostly up to 28.7 µM; activity change, negative = inhibition: at the top concentration
# In short: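 Two-generation exposure (96 h) targets delayed-death phenotype. Reporter parasites carrying integrated firefly luciferase, in red cells at 2% hematocrit and 0.05% parasitemia final, kept at 37 C, 5% CO2; luminescence loss indicates inhibition.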
# On the % scale 0 is the no-effect control and ±100 the full control effect; potency means the concentration at half of the fitted maximal effect.
SMILES,Potency,"activity change, negative = inhibition"
CC[C@@]12C(=O)N(c3cccc(C)c3)C(=O)N1[C@H](c1ccc(OC)cc1)[C@@H]1C(=O)N(C(C)(C)C)C(=O)[C@@H]12,"inconclusive: 0.465 µM [inhibitor, partial curve, poor fit]",–
CN(C(=O)c1ccc(S(=O)(=O)N(C)C)cc1)c1ccc2ccccc2c1,"inconclusive: 18.5 µM [inhibitor, single point]",–
Cc1ccnc(NCc2c(O)ccc3ccccc23)c1,active: 0.0928 µM,–
Cc1c(C(=O)N(Cc2cccs2)C2CCS(=O)(=O)C2)oc2ccccc12 (stereo not drawn),"inconclusive: 10.4 µM [inhibitor, partial curve, poor fit]",–
OCC(Cc1ccccc1)NCc1ccccc1C(F)(F)F (stereo not drawn),–,inactive: 33.4%
COc1ccc2c(c1)c(C(=O)N/N=C/c1cccs1)c(C)n2C,–,inactive: -10.9%
COc1ccc(NC(=O)c2cc(S(=O)(=O)NCC3COc4ccccc4O3)ccc2F)cc1 (stereo not drawn),–,inactive: 44%
COc1ccccc1N1CCN(C(=O)c2ccc3c(=O)n(Cc4ccc5c(c4)OCO5)c(=O)[nH]c3c2)CC1,"inconclusive: 11.7 µM [inhibitor, single point]",–
O=C(c1nc2ccc(Cl)cn2c1CNCCn1ccnc1)N1CCCCCCC1,"inconclusive: 11.7 µM [inhibitor, single point]",–
COc1cccc(CNC(=O)C2CCCN(S(=O)(=O)c3c(C)n[nH]c3C)C2)c1 (stereo not drawn),"inconclusive: 8.28 µM [inhibitor, partial curve, poor fit]",–
O=C(Nc1ccc(Cl)cc1)c1ccc(-n2cncn2)c([N+](=O)[O-])c1,"inconclusive: 14.7 µM [inhibitor, partial curve, poor fit]",–
N#CCCN(C(=O)CCl)c1cccc(Cl)c1,active: 5.22 µM,–
CCO[C@@H]1OC(C(=O)Nc2ccccc2)=C[C@H](c2ccc(Br)cc2)[C@H]1CCCO,"inconclusive: 16.5 µM [inhibitor, single point]",–
CCCCc1nnc(NC(=O)CN2C(=O)NC3(CCCCC3)C2=O)s1,–,inactive: -2.02%
CN(C(=O)COC(=O)CNC(=O)c1ccc(Cl)cc1Cl)c1ccccc1,–,inactive: 12.6%
CCOC(=O)N1CCN(c2nc3c(C)cccn3c(=O)c2C=O)CC1,"inconclusive: 16.5 µM [inhibitor, single point]",–
COc1ccc(NC(=O)C2CCCN2S(=O)(=O)c2ccc3c(c2)CCC(=O)N3)cc1Cl (stereo not drawn),"inconclusive: 18.5 µM [inhibitor, single point]",–
Cc1ccc(NC(=O)CSc2nnc(Cn3c(=O)sc4ccccc43)n2C)cc1,"inconclusive: 18.5 µM [inhibitor, single point]",–

# Part of the list above in another layout.
SMILES	Potency	activity change, negative = inhibition
CCO[C@@H]1OC(C(=O)Nc2ccccc2)=C[C@H](c2ccc(Br)cc2)[C@H]1CCCO	inconclusive: 16.5 µM [inhibitor, single point]	–
CCCCc1nnc(NC(=O)CN2C(=O)NC3(CCCCC3)C2=O)s1	–	inactive: -2.02%
